These are yes or no findings as the source states them, for the method shown. Binding seen in cells or lysates may run through a third protein. Some entries that bind do so weakly or less than the wild type. For some assays here: Where a sequence is shown, tags or fusion partners need not be part of it.
B1: cystinosin-GFP fusion protein (protein, UniProt O60931 23-367)
chain: SVSLTVPPVVKLENGSSTNVSLTLRPPLNATLVITFEITFRSKNITILELPDEVVVPPGVTNSSFQVTSQNVGQLTVYLHGNHSNQTGPRIRFLVIRSSAISIINQVIGWIYFVAWSISFYPQVIMNWRRKSVIGLSFDFVALNLTGFVAYSVFNIGLLWVPYIKEQFLLKYPNGVNPVNSNDVFFSLHAVVLTLIIIVQCCLYERGGQRVSWPAIGFLVLAWLFAFVTMIVAAVGVTTWLQFLFCFSYIKLAVTLVKYFPQAYMNFYYKSTEGWSIGNVLLDFTGGSFSLLQMFLQSYNNDQWTLIFGDPTKFGLGVFSIVFDVVFFIQHFCLYRKRPGYDQLN
B2: CTNS-DsRed (protein, UniProt O60931 23-367)
chain: B1 chain

By UniProt entry, the sequences of proteins in these tests, tags left out.
UniProt P38486: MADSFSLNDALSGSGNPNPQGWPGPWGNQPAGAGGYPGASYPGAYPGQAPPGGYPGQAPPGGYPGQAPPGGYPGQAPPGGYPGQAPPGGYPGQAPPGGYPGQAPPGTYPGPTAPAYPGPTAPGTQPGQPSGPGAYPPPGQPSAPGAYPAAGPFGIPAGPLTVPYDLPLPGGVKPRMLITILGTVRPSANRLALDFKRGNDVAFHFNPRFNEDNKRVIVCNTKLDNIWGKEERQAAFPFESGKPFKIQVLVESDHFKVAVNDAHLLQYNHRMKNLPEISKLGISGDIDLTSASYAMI
UniProt P17931: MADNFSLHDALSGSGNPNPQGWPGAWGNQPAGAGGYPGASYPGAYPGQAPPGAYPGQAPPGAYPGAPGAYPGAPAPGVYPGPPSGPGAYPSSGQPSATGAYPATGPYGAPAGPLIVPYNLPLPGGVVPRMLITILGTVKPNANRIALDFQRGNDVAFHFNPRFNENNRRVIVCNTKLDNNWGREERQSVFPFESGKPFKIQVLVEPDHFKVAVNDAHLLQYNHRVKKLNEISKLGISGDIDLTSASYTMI

Experiments:
[1] = molecular target: galectin-3 (dog (endogenous in MDCK)) (UniProt P38486); test: co-IP
[2] = molecular target: Gal3-GFP (UniProt P17931); test: co-IP

Row | Binder | binding [1] | binding [2]
1 | B1 | binds | 
2 | B2 |  | binds
